Publication PMC8053111, “MKRN3-mediated ubiquitination of Poly(A)-binding proteins modulates the stability and translation of GNRH1 mRNA in mammalian puberty” (Nucleic Acids Research, 2021)

Molecular target: T1, recombinant Gst-tagged MKRN3 (human) (UniProt Q13064)
T1 sequence: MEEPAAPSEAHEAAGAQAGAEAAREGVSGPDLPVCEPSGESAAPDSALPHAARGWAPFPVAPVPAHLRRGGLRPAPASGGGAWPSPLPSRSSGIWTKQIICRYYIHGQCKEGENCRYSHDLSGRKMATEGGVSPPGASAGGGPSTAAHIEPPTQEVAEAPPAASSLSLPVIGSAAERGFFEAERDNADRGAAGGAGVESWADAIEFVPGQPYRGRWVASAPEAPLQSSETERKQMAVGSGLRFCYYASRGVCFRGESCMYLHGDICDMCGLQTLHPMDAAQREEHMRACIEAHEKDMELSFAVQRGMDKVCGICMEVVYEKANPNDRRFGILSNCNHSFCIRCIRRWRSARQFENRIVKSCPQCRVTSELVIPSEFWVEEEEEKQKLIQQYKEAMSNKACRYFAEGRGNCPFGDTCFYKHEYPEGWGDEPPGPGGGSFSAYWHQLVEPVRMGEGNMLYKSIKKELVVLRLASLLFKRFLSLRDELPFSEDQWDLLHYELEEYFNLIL
Assay: pull-down; GST pull-down: 20 μg purified Gst-MKRN or MKRN3 truncation, 20 μg PABP-His6 or truncation and Glutathione Sepharose 4B, 4°C overnight in 500 μl of 20 mM Tris-Cl, 100 mM NaCl, 5 mM MgCl2, 1 mM EDTA, 1 mM DTT, 0.5% NP-40, 10 μg/ml BSA, pH 7.5; five washes; Coomassie staining and anti-His immunoblot; both purified

binding: binds
Substance: C-terminal region of PABPC1 (His6-tagged fragment) (human) (domain or fragment)

These are yes or no findings as the source states them, for the method shown. Binding calls can cover weak binding; strength is not graded here. Sequences can lack the tags named with a protein.
